Reference: paper PMC12394690
Results are given in words; binding and its absence hold for the method and conditions named. Binding seen in cells or lysates may run through a third protein. Some entries that bind do so weakly or less than the wild type. For some assays here: Sequences can lack the tags named with a protein. Each block holds one molecule with its values, some of them ahead of it.

Sequences of proteins named here, by UniProt entry; tags and fusion partners are left off.
UniProt O00327: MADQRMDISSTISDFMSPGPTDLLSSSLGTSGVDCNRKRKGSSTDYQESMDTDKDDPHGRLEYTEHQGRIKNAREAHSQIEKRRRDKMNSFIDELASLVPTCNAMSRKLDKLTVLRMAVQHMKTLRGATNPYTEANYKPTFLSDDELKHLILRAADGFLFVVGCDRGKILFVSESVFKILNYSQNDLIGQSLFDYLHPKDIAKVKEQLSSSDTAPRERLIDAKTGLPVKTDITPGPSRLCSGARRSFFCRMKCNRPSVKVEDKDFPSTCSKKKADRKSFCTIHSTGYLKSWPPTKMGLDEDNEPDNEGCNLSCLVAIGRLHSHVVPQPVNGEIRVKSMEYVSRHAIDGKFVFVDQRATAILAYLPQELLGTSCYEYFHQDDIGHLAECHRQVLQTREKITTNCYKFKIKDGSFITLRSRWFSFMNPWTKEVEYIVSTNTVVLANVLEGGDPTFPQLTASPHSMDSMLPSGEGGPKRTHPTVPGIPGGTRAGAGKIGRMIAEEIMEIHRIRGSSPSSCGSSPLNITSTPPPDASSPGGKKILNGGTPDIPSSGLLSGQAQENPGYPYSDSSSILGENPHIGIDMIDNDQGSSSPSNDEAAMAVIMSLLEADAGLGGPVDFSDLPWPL

Columns and labels:
[1] = target: T1, DCAF7, endogenous (human (endogenous; all cell lines of the paper are human)) (UniProt P61962); assay: co-IP; co-immunoprecipitation of DCAF7 and BMAL1, exogenously or endogenously
T1 sequence: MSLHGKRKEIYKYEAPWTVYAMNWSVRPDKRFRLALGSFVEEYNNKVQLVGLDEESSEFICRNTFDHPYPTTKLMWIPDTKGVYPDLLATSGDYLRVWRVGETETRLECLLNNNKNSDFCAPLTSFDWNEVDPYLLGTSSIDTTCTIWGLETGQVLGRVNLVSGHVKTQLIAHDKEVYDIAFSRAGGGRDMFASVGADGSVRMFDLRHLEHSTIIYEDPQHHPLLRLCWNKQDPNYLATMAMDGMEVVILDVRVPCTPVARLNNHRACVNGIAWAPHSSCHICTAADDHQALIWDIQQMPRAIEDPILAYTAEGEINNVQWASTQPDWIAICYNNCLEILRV

[2] = target: T2, DDB1- and CUL4-associated factor 7 (DCAF7), expressed from a plasmid (UniProt P61962); assay: as above
T2 sequence: T1 sequence

[3] = target: Brain and muscle ARNT-like 1 (BMAL1), expressed from a plasmid (UniProt O00327); assay: co-IP; BMAL1-p62 interaction in the absence or presence of overexpressed DCAF7 or USP2b
[4] = target: T2, DDB1- and CUL4-associated factor 7 (DCAF7), expressed from a plasmid; assay: co-IP; DCAF7-p62 interaction in the absence or presence of overexpressed USP2b
[5] = target: T3, DCAF7 of the GST pull-down (UniProt P61962); assay: pull-down; GST pull-down in vitro; the paper calls the binding direct; which partner carried GST is not told
T3 sequence: T1 sequence

binding [1]: binds
Molecule: BMAL1, endogenous (from UniProt O00327 1-626)

binding [3]: binds | binding [4]: binds
Molecule: sequestosome-1 (SQSTM1 or p62) (from UniProt Q13501 1-440)

Second part, the molecule before the results:

Molecule: Brain and muscle ARNT-like 1 (BMAL1), expressed from a plasmid (from UniProt O00327 1-626)
binding [2]: binds

B1: USP2a of the GST pull-down (enzyme, UniProt O75604-1 1-605)
chain: MSQLSSTLKRYTESARYTDAHYAKSGYGAYTPSSYGANLAASLLEKEKLGFKPVPTSSFLTRPRTYGPSSLLDYDRGRPLLRPDITGGGKRAESQTRGTERPLGSGLSGGSGFPYGVTNNCLSYLPINAYDQGVTLTQKLDSQSDLARDFSSLRTSDSYRIDPRNLGRSPMLARTRKELCTLQGLYQTASCPEYLVDYLENYGRKGSASQVPSQAPPSRVPEIISPTYRPIGRYTLWETGKGQAPGPSRSSSPGRDGMNSKSAQGLAGLRNLGNTCFMNSILQCLSNTRELRDYCLQRLYMRDLHHGSNAHTALVEEFAKLIQTIWTSSPNDVVSPSEFKTQIQRYAPRFVGYNQQDAQEFLRFLLDGLHNEVNRVTLRPKSNPENLDHLPDDEKGRQMWRKYLEREDSRIGDLFVGQLKSSLTCTDCGYCSTVFDPFWDLSLPIAKRGYPEVTLMDCMRLFTKEDVLDGDEKPTCCRCRGRKRCIKKFSIQRFPKILVLHLKRFSESRIRTSKLTTFVNFPLRDLDLREFASENTNHAVYNLYAVSNHSGTTMGGHYTAYCRSPGTGEWHTFNDSSVTPMSSSQVRTSDAYLLFYELASPPSRM
binding [5]: binds
